Some of the results follow.
Assays:
Test in all cases: log2 fold change, soluble protein after heating vs DMSO (PISA); higher = thermal stabilisation; K562 lysate, 10 uM; active = over 0.2 and 3.5 SD of the protein, either way, in both replicates (recomputed)
[1] = compound: C1=CC=C(C=C1)[C@H](COC2=CC3=C(C=C2)NC(=O)N3)NC(=O)C4=CC=CN(C4=O)CC5=CC(=C(C=C5)F)F
Outline: (§1)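 A 30 min treatment with 10 μM compound was applied to crude K562 extract at 1 mg/mL protein in PBS pH 7.4 with 1 mM MgCl2. Heating for 3 min spanned 48°C-58°C, after which aliquots were pooled, adjusted to 0.5% NP-40 at 4°C and spun at 21,000xg for 90 min. TMTpro 16plex LC-MS/MS of the supernatant, with channel sums equalised, gave values recorded as log-two fold change in thermal stability against solvent controls, from duplicates.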

The chains behind the UniProt entries cited, without tags or fusion partners. Where a name states a change or a piece, a line headed by the entry shows the natural chain unless it says otherwise.
UniProt O14773: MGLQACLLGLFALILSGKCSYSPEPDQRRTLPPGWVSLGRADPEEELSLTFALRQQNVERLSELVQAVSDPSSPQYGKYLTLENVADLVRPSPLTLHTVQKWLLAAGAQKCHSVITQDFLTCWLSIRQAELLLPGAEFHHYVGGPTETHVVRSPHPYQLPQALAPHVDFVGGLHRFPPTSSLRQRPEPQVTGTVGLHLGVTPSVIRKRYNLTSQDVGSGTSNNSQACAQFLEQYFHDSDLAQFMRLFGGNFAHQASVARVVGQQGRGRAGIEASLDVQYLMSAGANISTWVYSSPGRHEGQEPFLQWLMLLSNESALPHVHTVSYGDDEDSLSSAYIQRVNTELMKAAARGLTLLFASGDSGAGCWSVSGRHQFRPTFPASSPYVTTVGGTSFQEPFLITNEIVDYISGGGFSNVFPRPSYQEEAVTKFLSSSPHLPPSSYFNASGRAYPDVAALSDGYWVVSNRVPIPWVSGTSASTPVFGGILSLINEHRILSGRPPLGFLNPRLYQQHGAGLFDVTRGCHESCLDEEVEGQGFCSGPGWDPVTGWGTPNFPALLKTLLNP
UniProt O94826, whole entry, looked up: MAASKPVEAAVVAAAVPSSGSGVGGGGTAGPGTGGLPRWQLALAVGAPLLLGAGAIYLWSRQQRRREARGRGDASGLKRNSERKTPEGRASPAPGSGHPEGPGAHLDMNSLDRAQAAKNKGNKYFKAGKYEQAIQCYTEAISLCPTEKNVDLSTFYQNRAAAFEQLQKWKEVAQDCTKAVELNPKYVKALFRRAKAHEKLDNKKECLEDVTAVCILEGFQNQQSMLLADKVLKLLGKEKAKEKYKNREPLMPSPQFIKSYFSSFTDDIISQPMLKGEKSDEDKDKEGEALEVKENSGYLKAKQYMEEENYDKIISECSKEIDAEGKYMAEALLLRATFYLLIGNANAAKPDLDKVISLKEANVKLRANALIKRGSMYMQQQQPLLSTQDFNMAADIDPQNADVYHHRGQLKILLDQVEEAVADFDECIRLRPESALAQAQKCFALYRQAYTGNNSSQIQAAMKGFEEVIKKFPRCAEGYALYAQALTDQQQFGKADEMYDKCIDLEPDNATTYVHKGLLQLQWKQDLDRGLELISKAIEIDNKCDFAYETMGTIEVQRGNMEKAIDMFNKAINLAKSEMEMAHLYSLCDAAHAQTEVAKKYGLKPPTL
UniProt O14763, whole entry, looked up: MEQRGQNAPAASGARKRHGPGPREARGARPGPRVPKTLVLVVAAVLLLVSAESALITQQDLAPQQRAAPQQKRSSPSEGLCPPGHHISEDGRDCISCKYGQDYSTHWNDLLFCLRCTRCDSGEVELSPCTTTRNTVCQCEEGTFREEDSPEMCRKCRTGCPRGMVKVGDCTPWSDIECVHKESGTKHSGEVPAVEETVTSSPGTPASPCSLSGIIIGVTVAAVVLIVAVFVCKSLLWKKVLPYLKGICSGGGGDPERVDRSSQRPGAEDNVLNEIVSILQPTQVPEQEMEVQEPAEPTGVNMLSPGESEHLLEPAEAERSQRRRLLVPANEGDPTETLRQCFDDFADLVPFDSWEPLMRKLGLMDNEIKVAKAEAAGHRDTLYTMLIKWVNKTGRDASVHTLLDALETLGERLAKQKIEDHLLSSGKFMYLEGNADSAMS
UniProt O60784, whole entry, looked up: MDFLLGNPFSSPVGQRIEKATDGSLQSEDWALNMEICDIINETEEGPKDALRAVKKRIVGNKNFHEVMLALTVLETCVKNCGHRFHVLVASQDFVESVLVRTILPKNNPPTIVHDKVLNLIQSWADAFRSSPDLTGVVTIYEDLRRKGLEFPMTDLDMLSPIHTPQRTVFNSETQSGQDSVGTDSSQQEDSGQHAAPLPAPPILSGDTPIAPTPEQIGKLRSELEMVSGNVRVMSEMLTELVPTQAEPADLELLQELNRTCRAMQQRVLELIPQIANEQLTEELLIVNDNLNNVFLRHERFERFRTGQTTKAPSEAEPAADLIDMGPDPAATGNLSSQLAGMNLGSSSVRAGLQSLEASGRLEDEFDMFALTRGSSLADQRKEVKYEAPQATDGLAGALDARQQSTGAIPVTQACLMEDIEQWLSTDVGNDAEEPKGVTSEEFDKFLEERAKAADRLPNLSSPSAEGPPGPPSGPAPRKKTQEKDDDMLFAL
UniProt P11387: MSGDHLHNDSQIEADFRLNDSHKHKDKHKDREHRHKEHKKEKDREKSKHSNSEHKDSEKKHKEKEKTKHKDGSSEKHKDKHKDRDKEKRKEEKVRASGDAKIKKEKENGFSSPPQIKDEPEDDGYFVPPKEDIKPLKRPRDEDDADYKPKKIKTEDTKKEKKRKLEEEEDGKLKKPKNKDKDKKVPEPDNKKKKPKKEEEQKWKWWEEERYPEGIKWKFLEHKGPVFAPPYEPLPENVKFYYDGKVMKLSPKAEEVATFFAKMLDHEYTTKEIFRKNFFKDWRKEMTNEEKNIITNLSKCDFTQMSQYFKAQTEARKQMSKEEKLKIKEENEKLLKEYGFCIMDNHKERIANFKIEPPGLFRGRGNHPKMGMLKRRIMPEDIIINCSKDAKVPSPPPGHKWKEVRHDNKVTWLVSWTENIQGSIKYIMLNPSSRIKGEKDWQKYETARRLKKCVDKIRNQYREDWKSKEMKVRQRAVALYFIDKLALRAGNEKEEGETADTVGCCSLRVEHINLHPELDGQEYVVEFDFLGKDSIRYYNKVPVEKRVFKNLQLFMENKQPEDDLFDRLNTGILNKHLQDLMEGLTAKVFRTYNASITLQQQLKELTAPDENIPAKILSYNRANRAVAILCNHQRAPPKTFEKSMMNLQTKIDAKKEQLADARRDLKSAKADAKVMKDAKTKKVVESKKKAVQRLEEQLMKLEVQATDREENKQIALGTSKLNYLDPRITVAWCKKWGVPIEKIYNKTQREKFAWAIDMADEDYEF
UniProt Q5T3F8: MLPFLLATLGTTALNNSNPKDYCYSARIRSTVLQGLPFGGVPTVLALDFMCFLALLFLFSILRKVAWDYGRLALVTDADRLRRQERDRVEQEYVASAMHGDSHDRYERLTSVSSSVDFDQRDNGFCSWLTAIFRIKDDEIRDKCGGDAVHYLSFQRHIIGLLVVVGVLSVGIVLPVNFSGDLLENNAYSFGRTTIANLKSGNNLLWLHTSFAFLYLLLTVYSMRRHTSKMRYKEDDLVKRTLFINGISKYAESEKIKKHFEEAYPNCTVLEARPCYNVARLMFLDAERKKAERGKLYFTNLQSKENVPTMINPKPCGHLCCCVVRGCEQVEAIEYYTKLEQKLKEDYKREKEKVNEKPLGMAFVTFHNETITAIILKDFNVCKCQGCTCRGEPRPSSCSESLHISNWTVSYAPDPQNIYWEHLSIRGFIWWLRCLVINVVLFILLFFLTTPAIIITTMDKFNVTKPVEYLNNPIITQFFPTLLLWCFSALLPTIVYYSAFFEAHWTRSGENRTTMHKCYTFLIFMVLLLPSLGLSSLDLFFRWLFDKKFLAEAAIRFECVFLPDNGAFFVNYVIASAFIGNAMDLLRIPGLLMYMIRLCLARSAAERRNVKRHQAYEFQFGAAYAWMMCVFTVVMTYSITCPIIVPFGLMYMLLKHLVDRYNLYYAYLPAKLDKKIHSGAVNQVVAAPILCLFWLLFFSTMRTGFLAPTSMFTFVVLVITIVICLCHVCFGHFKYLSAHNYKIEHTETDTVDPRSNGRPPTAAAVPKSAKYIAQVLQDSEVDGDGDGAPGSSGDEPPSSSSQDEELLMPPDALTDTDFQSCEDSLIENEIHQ
UniProt Q96HV5: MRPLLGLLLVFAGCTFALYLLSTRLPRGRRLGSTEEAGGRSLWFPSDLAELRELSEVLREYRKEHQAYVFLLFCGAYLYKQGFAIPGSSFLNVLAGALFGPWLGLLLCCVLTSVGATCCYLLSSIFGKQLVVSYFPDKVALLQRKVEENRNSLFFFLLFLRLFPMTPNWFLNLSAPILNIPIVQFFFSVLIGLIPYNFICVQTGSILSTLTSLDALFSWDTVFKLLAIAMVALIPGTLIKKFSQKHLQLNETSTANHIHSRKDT
UniProt P28908: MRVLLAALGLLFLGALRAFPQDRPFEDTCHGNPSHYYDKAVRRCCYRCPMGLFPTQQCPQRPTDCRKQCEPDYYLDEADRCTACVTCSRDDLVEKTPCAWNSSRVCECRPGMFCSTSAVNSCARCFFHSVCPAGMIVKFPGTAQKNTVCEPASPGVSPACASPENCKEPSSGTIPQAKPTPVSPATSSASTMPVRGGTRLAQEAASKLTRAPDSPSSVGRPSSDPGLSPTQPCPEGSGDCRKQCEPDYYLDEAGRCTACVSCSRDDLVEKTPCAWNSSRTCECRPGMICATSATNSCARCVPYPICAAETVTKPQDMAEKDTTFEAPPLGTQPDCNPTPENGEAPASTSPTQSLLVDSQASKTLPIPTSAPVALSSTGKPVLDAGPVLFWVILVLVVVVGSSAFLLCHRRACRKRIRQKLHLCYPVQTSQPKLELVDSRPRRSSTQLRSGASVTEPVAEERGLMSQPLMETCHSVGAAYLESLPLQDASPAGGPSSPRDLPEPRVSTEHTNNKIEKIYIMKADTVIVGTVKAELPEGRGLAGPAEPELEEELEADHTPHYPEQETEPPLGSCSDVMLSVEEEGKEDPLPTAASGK

[2] = compound: CC1=C(SC2=C1C(=N[C@H](C3=NN=C(N32)C)CC(=O)N)C4=CC=C(C=C4)Cl)C
Outline: as §1

[3] = compound: CC1=C2C(=CC=C1)N=C(N(C2=O)C3=CC=CC=C3C)CN4C=NC5=C(N=CN=C54)N
Outline: as §1

[4] = compound: Cc1sc2c(c1C)C(c1ccc(Cl)cc1)=N[C@@H](CC(=O)OC(C)(C)C)c1nnc(C)n1-2
Outline: as §1

[5] = compound: c1ccc([C@@H]2C[C@H]2NC2CCNCC2)cc1
Outline: as §1

Measured: log2 fold change

TPP1 (UniProt O14773)
inactive: [1] -0.032 | [2] -0.012 | [3] -0.025 | [4] -0.017 | [5] 0.006

TOMM70 (UniProt O94826)
inactive: [1] -0.025 | [2] 0.003 | [3] 0.024 | [4] 0.039 | [5] 0.04

TNFRSF10B (UniProt O14763)
inactive: [1] 0 | [2] 0.095 | [3] 0.04 | [4] -0.049 | [5] 0.029

TOM1 (UniProt O60784)
inactive: [1] 0.04 | [2] -0.01 | [3] 0.047 | [4] -0.025 | [5] 0.019

TOP1 (UniProt P11387)
inactive: [1] 0 | [2] 0.004 | [3] 0.017 | [4] -0.008 | [5] 0.076

TMEM63B (UniProt Q5T3F8)
inactive: [1] 0.064 | [2] -0.07 | [3] -0.075 | [4] -0.029 | [5] -0.033

TMEM41A (UniProt Q96HV5)
inactive: [1] -0.016 | [2] -0.013 | [3] 0.029 | [4] -0.002 | [5] -0.067

TOLLIP (UniProt Q9H0E2)
inactive: [1] 0.071 | [2] -0.063 | [3] -0.023 | [4] -0.003 | [5] -0.006

TNFRSF8 (UniProt P28908)
inactive: [1] -0.003 | [2] -0.086 | [3] 0.032 | [4] -0.038 | [5] 0.003

Reference: the supplement of paper PMC10849652
